Measurements as given in article PMC12519566, “A TOM1 variant impairs interaction with TOLLIP, autophagosome-lysosome fusion and regulation of innate immunity” (Disease Models & Mechanisms, 2025).

Biological target: TOM1 WT, MYC-BirA fusion (BioID bait) (UniProt O60784)
Test: proximity labelling; BioID with mass spectrometry; Flp-In T-REx 293 cells induced with 2 µg/ml doxycycline and 50 µM biotin for 24 h; Strep-Tactin sepharose; three biological replicates

B1: myosin VI (natural protein, human (endogenous in Flp-In T-REx 293), UniProt Q9UM54 1-1294, looked up)
chain: MEDGKPVWAPHPTDGFQMGNIVDIGPDSLTIEPLNQKGKTFLALINQVFPAEEDSKKDVEDNCSLMYLNEATLLHNIKVRYSKDRIYTYVANILIAVNPYFDIPKIYSSEAIKSYQGKSLGTRPPHVFAIADKAFRDMKVLKMSQSIIVSGESGAGKTENTKFVLRYLTESYGTGQDIDDRIVEANPLLEAFGNAKTVRNNNSSRFGKFVEIHFNEKSSVVGGFVSHYLLEKSRICVQGKEERNYHIFYRLCAGASEDIREKLHLSSPDNFRYLNRGCTRYFANKETDKQILQNRKSPEYLKAGSMKDPLLDDHGDFIRMCTAMKKIGLDDEEKLDLFRVVAGVLHLGNIDFEEAGSTSGGCNLKNKSAQSLEYCAELLGLDQDDLRVSLTTRVMLTTAGGTKGTVIKVPLKVEQANNARDALAKTVYSHLFDHVVNRVNQCFPFETSSYFIGVLDIAGFEYFEHNSFEQFCINYCNEKLQQFFNERILKEEQELYQKEGLGVNEVHYVDNQDCIDLIEAKLVGILDILDEENRLPQPSDQHFTSAVHQKHKDHFRLTIPRKSKLAVHRNIRDDEGFIIRHFAGAVCYETTQFVEKNNDALHMSLESLICESRDKFIRELFESSTNNNKDTKQKAGKLSFISVGNKFKTQLNLLLDKLRSTGASFIRCIKPNLKMTSHHFEGAQILSQLQCSGMVSVLDLMQGGYPSRASFHELYNMYKKYMPDKLARLDPRLFCKALFKALGLNENDYKFGLTKVFFRPGKFAEFDQIMKSDPDHLAELVKRVNHWLTCSRWKKVQWCSLSVIKLKNKIKYRAEACIKMQKTIRMWLCKRRHKPRIDGLVKVGTLKKRLDKFNEVVSVLKDGKPEMNKQIKNLEISIDTLMAKIKSTMMTQEQIQKEYDALVKSSEELLSALQKKKQQEEEAERLRRIQEEMEKERKRREEDEKRRRKEEEERRMKLEMEAKRKQEEEERKKREDDEKRIQAEVEAQLARQKEEESQQQAVLEQERRDRELALRIAQSEAELISDEAQADLALRRSLDSYPVSKNDGTRPKMTPEQMAKEMSEFLSRGPAVLATKAAAGTKKYDLSKWKYAELRDTINTSCDIELLAACREEFHRRLKVYHAWKSKNKKRNTETEQRAPKSVTDYDFAPFLNNSPQQNPAAQIPARQREIEMNRQQRFFRIPFIRPADQYKDPQSKKKGWWYAHFDGPWIARQMELHPDKPPILLVAGKDDMEMCELNLEETGLTRKRGAEILPRQFEEIWERCGGIQYLQNAIESRQARPTYATAMLQSLLK
notes: myosin VI, endogenous protein found by proximity labeling mass spectrometry; source: endogenous, Flp-In T-REx 293 cells
B1 was tested, and the binding was “binds”.

Results are given in words; binding and its absence hold for the method and conditions named. In cells and extracts the contact can be indirect. Here binding means that the protein was enriched with, or labelled near, the bait; the list need not be complete.
